# According to the supplement of paper PMC10849652:
# Chains of the proteins cited; added tags and fusions are not shown. Lines headed by an entry give the natural chain unless they say otherwise; changes in a name come on top.
# UniProt Q8NDX5: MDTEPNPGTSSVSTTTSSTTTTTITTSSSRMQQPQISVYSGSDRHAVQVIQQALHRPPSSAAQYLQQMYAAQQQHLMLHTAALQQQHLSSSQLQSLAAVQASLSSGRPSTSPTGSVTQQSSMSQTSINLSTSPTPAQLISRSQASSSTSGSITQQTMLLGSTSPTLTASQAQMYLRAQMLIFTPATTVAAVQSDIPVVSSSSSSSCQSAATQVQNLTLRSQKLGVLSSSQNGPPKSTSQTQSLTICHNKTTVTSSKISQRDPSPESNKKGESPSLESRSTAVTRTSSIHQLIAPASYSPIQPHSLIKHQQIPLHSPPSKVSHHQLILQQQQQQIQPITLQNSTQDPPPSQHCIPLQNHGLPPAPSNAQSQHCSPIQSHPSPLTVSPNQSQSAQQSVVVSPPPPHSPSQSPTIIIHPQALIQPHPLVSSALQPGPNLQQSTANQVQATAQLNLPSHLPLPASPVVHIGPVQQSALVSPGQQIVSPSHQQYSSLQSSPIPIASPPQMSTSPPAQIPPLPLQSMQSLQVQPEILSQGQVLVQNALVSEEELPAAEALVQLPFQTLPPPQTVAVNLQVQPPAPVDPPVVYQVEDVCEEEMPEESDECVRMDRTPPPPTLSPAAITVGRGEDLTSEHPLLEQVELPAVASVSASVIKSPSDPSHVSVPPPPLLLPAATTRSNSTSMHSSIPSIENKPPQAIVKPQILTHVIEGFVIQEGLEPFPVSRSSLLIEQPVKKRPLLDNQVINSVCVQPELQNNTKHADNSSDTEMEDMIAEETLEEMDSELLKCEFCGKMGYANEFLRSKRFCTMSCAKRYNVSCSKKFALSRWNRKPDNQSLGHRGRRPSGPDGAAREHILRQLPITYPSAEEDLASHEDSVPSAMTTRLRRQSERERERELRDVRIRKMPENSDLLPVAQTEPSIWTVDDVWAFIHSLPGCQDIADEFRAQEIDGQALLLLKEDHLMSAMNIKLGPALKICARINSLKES
# UniProt Q32NB8: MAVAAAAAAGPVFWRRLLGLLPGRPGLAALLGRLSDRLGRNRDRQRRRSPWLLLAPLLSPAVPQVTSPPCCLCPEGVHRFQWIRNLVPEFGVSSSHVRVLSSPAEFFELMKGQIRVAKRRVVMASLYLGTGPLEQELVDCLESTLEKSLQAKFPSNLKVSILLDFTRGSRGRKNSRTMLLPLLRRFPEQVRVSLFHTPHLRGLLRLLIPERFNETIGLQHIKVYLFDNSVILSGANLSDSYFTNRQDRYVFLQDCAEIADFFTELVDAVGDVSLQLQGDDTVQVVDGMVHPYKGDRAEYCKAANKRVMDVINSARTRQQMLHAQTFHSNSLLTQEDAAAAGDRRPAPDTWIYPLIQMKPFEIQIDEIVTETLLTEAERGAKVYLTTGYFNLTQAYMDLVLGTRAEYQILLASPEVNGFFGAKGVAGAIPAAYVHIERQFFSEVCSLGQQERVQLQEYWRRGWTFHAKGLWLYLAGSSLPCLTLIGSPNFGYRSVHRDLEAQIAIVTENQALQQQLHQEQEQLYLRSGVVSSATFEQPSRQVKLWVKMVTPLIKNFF
# UniProt Q92521: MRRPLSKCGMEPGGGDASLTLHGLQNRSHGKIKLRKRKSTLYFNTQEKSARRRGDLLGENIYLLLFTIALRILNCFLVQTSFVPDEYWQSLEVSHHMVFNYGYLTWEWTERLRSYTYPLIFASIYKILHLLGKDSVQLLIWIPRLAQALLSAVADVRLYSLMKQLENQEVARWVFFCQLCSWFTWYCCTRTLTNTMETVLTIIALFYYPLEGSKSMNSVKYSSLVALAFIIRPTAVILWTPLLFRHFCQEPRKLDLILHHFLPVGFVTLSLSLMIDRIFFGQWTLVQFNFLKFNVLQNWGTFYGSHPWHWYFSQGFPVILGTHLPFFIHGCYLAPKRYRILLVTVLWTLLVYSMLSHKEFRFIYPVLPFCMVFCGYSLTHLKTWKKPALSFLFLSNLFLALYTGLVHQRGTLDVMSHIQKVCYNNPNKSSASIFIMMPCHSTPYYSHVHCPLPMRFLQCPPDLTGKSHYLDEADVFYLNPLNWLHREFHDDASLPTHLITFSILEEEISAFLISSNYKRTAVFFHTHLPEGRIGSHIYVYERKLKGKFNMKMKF
# UniProt P14618, whole entry, looked up: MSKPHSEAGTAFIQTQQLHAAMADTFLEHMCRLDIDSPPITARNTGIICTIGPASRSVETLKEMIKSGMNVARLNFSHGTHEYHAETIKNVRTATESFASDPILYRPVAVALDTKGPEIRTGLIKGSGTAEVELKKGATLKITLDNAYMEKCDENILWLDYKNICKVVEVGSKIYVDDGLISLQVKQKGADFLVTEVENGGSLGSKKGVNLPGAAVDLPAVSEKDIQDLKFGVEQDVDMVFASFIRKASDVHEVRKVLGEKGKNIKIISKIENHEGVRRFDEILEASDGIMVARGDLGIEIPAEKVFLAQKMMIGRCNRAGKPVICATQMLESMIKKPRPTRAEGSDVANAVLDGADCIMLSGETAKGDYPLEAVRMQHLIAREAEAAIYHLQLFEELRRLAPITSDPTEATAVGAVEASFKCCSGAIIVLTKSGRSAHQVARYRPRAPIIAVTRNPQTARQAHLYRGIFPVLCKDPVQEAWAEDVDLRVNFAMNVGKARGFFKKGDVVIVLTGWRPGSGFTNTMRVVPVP
# UniProt P46020: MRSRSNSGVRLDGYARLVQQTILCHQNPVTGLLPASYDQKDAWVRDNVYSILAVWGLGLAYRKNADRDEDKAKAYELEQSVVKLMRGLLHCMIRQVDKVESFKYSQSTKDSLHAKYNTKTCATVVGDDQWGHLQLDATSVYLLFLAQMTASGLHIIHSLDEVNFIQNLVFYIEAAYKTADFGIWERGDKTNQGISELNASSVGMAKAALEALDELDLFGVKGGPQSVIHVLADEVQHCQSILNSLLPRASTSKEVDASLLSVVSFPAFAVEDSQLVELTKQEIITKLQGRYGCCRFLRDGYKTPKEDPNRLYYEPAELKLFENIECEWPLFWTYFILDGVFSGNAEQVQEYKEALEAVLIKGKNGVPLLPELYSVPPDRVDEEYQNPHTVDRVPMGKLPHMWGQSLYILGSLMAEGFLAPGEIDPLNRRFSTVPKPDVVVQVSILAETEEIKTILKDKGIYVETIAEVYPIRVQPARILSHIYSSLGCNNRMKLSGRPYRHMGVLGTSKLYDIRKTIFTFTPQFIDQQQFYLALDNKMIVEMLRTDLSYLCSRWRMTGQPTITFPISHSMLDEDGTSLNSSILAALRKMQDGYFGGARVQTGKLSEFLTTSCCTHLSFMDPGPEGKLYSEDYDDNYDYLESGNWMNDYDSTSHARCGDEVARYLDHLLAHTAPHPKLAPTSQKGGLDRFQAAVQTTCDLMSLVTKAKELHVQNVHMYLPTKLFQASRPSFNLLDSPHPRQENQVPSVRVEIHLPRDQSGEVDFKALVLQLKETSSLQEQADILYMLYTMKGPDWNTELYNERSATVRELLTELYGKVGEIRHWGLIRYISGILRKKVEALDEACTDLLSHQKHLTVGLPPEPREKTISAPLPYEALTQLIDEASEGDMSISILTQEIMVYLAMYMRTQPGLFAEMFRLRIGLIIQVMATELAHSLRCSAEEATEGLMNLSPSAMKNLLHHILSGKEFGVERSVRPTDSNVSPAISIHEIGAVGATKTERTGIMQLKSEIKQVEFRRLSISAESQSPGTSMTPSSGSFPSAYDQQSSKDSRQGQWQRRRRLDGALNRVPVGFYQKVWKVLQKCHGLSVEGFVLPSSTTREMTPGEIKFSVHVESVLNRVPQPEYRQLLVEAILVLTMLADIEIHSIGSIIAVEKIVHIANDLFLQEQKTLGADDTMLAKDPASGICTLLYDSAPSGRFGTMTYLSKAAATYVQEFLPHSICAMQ
# UniProt P48736: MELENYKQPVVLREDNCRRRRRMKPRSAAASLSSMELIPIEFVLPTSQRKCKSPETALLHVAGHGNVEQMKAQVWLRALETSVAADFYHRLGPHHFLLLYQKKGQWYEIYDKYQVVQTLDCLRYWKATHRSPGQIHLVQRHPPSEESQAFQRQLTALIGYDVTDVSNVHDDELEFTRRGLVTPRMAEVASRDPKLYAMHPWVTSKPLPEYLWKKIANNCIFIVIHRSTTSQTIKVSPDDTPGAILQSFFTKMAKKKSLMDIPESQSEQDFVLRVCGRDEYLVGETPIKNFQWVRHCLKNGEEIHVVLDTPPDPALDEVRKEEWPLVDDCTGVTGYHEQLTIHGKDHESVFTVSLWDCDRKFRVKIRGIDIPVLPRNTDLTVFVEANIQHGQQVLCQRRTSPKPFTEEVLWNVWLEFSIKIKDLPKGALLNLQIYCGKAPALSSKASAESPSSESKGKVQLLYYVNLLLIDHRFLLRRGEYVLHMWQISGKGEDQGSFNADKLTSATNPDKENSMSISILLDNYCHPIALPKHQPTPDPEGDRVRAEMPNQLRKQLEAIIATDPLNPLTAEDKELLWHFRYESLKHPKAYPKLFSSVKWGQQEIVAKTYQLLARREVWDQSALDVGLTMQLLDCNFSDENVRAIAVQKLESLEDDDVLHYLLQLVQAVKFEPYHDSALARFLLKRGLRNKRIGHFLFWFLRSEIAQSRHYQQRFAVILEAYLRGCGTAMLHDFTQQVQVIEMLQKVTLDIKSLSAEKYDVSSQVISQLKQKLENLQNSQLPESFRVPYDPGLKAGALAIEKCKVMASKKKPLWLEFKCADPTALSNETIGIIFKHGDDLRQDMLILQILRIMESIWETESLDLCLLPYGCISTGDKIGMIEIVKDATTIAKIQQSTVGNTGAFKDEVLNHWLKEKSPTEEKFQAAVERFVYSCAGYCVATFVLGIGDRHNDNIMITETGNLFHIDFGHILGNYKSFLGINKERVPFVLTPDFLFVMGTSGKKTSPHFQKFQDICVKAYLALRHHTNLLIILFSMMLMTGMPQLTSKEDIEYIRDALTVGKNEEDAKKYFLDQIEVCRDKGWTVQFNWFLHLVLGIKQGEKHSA
# UniProt P56589: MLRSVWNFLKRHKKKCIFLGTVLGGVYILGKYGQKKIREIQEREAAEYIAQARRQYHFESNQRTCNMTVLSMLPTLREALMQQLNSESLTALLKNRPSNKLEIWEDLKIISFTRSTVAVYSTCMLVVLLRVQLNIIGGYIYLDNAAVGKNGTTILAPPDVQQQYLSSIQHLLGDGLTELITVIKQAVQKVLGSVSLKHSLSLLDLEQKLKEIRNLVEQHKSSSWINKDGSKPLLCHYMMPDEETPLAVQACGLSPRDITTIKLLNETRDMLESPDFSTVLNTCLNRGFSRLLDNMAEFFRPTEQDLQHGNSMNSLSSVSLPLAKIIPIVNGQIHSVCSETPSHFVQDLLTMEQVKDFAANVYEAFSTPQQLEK
# UniProt Q8TCG2: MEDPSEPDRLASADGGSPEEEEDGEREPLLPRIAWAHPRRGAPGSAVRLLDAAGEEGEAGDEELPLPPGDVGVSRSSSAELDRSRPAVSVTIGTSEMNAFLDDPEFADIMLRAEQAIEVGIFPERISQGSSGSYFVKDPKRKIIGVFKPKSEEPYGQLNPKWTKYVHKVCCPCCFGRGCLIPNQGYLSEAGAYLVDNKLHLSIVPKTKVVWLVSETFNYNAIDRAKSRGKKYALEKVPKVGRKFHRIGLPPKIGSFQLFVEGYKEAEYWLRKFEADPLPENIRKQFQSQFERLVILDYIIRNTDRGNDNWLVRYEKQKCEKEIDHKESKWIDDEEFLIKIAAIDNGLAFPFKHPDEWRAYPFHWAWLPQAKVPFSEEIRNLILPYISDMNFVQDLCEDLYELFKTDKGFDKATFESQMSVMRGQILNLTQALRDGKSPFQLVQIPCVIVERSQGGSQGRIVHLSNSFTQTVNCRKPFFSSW
# UniProt Q8TCD6: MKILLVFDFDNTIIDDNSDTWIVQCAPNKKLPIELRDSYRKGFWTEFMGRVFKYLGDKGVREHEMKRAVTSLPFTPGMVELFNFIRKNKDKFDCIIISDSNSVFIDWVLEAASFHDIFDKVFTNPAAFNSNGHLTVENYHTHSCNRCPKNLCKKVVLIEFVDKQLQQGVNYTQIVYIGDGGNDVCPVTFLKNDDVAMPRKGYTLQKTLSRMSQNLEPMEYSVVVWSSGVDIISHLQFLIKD
# This is one part of the list. Residues, ends and D or L forms follow the SMILES beside them. *: point of attachment. Cbz = O=C(OCc1ccccc1)*
# Key:
# Experiment in all cases: log2 fold change, soluble protein after heating vs DMSO (PISA); higher = thermal stabilisation; K562 cells, 10 uM, 30 min; active = over 0.2 and 3.5 SD of the protein, either way, in both replicates (recomputed)
# [1] = compound: C1COCCN1CCN2C3=CC=CC=C3N=C2NC(=O)C4=CC(=CC=C4)[N+](=O)[O-] [IRAK-1-4 Inhibitor I]
# Outline: (§1)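 K562 cells at 2×10^6 cells/mL were treated for 30 min with 10 μM compound, and aliquots were heated for 3 min over 48°C-58°C before pooling. Extraction used PBS with 0.5% NP-40 at 4°C, and soluble protein was the supernatant after 21,000xg for 90 min, measured by TMTpro 16plex LC-MS/MS with channel sums equalised. Thermal stability values, relative to control samples and from duplicates, are log2 fold changes.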
# [2] = compound: C=CC(=O)N1CCC[C@@H](n2nc(-c3ccc(Oc4ccccc4)cc3)c3c(N)ncnc32)C1 [ibrutinib]
# Outline: as §1
# [3] = compound: CC(C)(O)CC(=O)NCCn1ccc2ncnc(Nc3ccc(Oc4cccc(C(F)(F)F)c4)c(Cl)c3)c21
# Outline: as §1
# [4] = compound: CC(C)C1=C2N=C(C=C(N2N=C1)NCC3=CC=CC=C3)NCCCCCCN
# Outline: as §1
# [5] = compound: CC(C)N(C[C@H]1O[C@@H](n2cnc3c(N)ncnc32)[C@H](O)[C@@H]1O)[C@H]1C[C@@H](CCc2nc3cc(C(C)(C)C)ccc3[nH]2)C1 [pinometostat]
# Outline: as §1
# [6] = compound: CC1=C(C=C(C=C1)NC(=O)C2=CC(=CC=C2)C(C)(C)C#N)NC3=CC4=C(C=C3)N=CN(C4=O)C
# Outline: as §1
# [7] = compound: CC1=CC=C(C=C1)SC2=C3C=C(SC3=CN=C2)C(=O)N
# Outline: as §1
# [8] = compound: CC1=NC(=CC=C1)C2=C(N=C(N2)C(C)(C)C)C3=CC4=NC=CN=C4C=C3
# Outline: as §1
# [9] = compound: CCCCN(Cc1ccc(C(=O)NO)cc1)C(=O)Nc1ccccc1 [Nexturastat A]
# Outline: as §1
# [10] = compound: CCCS(=O)(=O)Nc1ccc(F)c(C(=O)c2c[nH]c3ncc(Cl)cc23)c1F
# Outline: as §1
# [11] = compound: CCCc1cc(C)[nH]c(=O)c1CNC(=O)c1cc(-c2ccnc(N3CCN(C)CC3)c2)cc2c1cnn2C(C)C
# Outline: as §1
# [12] = compound: CCN(CC)Cc1ccc2cc(COC(=O)Nc3ccc(C(=O)NO)cc3)ccc2c1 [givinostat]
# Outline: as §1
# [13] = compound: CCN(CCCOc1ccc2c(Nc3cc(CC(=O)Nc4cccc(F)c4)[nH]n3)ncnc2c1)CCOP(=O)(O)O [barasertib]
# Outline: as §1
# [14] = compound: CC(=O)c1cnc2ccc(-c3cc(Cl)c(O)c(Cl)c3)nc2c1N[C@H]1CC[C@H](CN(C)C)CC1
# Outline: as §1
# [15] = compound: CC1=C(C(CC(=O)N1)C2=CC=C(C=C2)C(F)(F)F)C(=O)NC3=C(C=C4C(=C3)C=NN4)F
# Outline: as §1
# [16] = compound: CC1=C(C2=C(C=C1)C(=O)C3=CC=CC=C3N2CCCN)C
# Outline: as §1
# [17] = compound: CCCS(=O)(=O)Nc1ccc(F)c(C(=O)c2c[nH]c3ncc(-c4ccc(Cl)cc4)cc23)c1F [vemurafenib]
# Outline: as §1
# [18] = compound: CC(C)(C)Cn1c(N)nc2ccc(-c3[nH]c(C(C)(C)C)nc3-c3ccc(F)cc3)nc21 [ralimetinib]
# Outline: as §1
# [19] = compound: CC(C)C[C@@H](C=O)NC(=O)[C@H](CC(C)C)NC(=O)[C@H](CC(C)C)NC(=O)OCc1ccccc1
# Outline: as §1
# [20] = compound: CC1=C(C=C(C=C1)NC(=O)C2=CC(=CC=C2)N(C)C)NC(=O)C3=CC=C(C=C3)O
# Outline: as §1
Target,log2 fold change [1],log2 fold change [2],log2 fold change [3],log2 fold change [4],log2 fold change [5],log2 fold change [6],log2 fold change [7],log2 fold change [8],log2 fold change [9],log2 fold change [10],log2 fold change [11],log2 fold change [12],log2 fold change [13],log2 fold change [14],log2 fold change [15],log2 fold change [16],log2 fold change [17],log2 fold change [18],log2 fold change [19],log2 fold change [20]
PHC3 isoform 7 (UniProt Q8NDX5),inactive: -0.377,inactive: -0.159,inactive: -0.25,inactive: -0.219,inactive: -0.11,inactive: 0.102,inactive: 0.088,inactive: 0.266,inactive: -0.43,inactive: 0.096,inactive: 0.116,inactive: 0.17,inactive: 0,,,,,,,
PGS1 (UniProt Q32NB8),inactive: -0.072,inactive: -0.071,inactive: -0.128,inactive: -0.105,inactive: -0.034,inactive: 0.03,inactive: -0.031,inactive: 0.056,inactive: -0.109,inactive: -0.026,inactive: 0,inactive: 0.013,inactive: 0,inactive: -0.042,inactive: -0.04,inactive: 0.127,inactive: -0.041,,,
PFN1 (UniProt I3L3D5),inactive: 0.053,inactive: 0.093,inactive: 0.159,inactive: 0.042,inactive: 0.053,inactive: -0.26,inactive: -0.087,inactive: -0.303,inactive: 0.178,inactive: -0.148,inactive: -0.252,inactive: 0.073,inactive: 0.032,inactive: -0.043,,inactive: 0.037,,inactive: -0.136,inactive: 0.259,inactive: 0.161
PGD (UniProt K7EM49),inactive: 0.039,inactive: 0.029,inactive: -0.008,,inactive: 0.081,,inactive: -0.203,inactive: -0.132,inactive: 0.306,inactive: -0.102,,,inactive: -0.004,,,,inactive: -0.028,inactive: -0.156,inactive: 0.174,inactive: 0.141
PIGB (UniProt Q92521),inactive: -0.025,,inactive: -0.002,inactive: 0.135,inactive: 0.019,inactive: -0.107,inactive: -0.006,inactive: -0.012,inactive: 0.083,inactive: 0.009,inactive: 0.07,inactive: -0.01,,,,inactive: -0.072,,inactive: 0.009,inactive: 0.04,inactive: -0.001
PKM isoform 2 (UniProt P14618),inactive: -0.018,,active: -0.561,,inactive: 0.08,inactive: -0.13,inactive: 0.049,inactive: 0.033,inactive: 0.267,inactive: 0.094,inactive: 0.056,,inactive: -0.005,inactive: 0,,inactive: 0.034,inactive: 0.088,inactive: 0.054,inactive: 0.023,inactive: -0.082
PHKA1 (UniProt P46020),inactive: -0.043,inactive: -0.001,inactive: -0.161,inactive: 0.011,inactive: -0.023,inactive: -0.027,inactive: -0.062,inactive: -0.033,inactive: 0.047,inactive: 0.019,inactive: 0.076,inactive: -0.024,inactive: -0.133,inactive: 0.306,,inactive: 0.022,,inactive: -0.03,inactive: 0.195,inactive: -0.155
PIK3CG (UniProt P48736),inactive: -0.258,,inactive: -0.011,inactive: -0.201,inactive: -0.252,inactive: 0.218,,inactive: -0.065,inactive: 0.089,,,inactive: 0.209,,inactive: -0.261,,,,,,
PEX3 (UniProt P56589),inactive: 0.059,,inactive: -0.091,inactive: 0.019,inactive: 0.011,inactive: 0.035,inactive: -0.052,inactive: 0.029,inactive: 0.209,inactive: 0.005,inactive: 0.017,inactive: 0.101,,inactive: -0.054,inactive: 0.047,inactive: -0.076,inactive: -0.042,inactive: -0.137,inactive: 0.073,inactive: -0.088
PI4K2B (UniProt Q8TCG2),inactive: 0.035,inactive: -0.004,,inactive: -0.131,inactive: 0.053,inactive: -0.082,,inactive: -0.013,,,inactive: 0.144,inactive: 0.019,inactive: 0.146,inactive: 0.042,,inactive: 0.003,inactive: 0.059,inactive: -0.04,inactive: -0.017,inactive: -0.002
PKM (UniProt P14618),inactive: 0.012,,inactive: -0.02,inactive: 0.079,inactive: -0.033,inactive: -0.013,inactive: 0.001,inactive: 0.014,inactive: -0.054,inactive: -0.01,inactive: -0.023,inactive: 0,inactive: -0.011,inactive: -0.011,,inactive: 0.036,inactive: -0.012,inactive: -0.018,inactive: -0.013,inactive: -0.005
PHOSPHO2 (UniProt Q8TCD6),inactive: -0.052,inactive: -0.084,,inactive: 0.01,inactive: -0.04,,,inactive: 0.039,,,inactive: 0.01,inactive: -0.042,inactive: -0.024,inactive: -0.032,,inactive: 0.038,inactive: 0.167,inactive: -0.222,inactive: -0.12,inactive: -0.093
